Results: US20130251707A1
No constants are given. Whether binding was seen depends on the method and setting. Some results given as binding are weak or reduced against the parent protein; the word gives no strength.

Protein sequences, listed by entry. Tags and fused reporters are not part of them. Lines headed by an entry give the natural chain unless they say otherwise; changes in a name come on top.
UniProt P19438: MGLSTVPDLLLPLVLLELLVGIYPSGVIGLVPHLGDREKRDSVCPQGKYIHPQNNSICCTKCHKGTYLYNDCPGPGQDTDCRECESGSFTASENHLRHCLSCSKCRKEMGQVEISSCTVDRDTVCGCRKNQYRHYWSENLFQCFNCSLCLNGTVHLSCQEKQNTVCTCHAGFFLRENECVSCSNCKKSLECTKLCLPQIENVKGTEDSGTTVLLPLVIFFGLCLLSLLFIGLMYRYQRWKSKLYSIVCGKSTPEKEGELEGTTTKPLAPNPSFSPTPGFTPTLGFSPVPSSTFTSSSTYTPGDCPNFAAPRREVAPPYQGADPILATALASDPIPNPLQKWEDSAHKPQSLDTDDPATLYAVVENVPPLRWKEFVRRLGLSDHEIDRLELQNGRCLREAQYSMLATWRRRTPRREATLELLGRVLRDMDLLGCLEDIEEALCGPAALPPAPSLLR
UniProt P25445: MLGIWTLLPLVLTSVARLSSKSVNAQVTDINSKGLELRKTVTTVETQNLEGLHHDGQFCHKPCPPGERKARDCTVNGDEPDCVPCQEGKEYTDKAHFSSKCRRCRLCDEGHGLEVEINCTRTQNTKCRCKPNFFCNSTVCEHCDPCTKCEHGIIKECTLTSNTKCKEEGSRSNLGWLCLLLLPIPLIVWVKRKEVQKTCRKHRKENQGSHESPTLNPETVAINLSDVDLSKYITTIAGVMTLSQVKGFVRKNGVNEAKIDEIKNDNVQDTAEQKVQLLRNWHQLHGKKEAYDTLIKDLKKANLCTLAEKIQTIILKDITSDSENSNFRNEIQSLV

Experiments:
[1] = target: rhesus TNFR1-Fc (rhesus; human); assay: quartz crystal microbalance, TNFR1-Fc immobilized
[2] = target: T1, human TNFR1-Fas on transfected mouse embryonic fibroblasts (human) (UniProt P19438+P25445); assay: flow cytometry on transfected MEF cells (FIG. 2a,b)
[3] = target: T1, human TNFR1-Fas on transfected mouse embryonic fibroblasts (human); assay: summary of the example's flow cytometry
[4] = target: rhesus TNFR1-Fc (rhesus; human); assay: summary of the example's binding assays
[5] = target: rhesus TNFR1-Fc (rhesus; human); assay: species ELISA on coated TNFR1-Fc (FIG. 3b)
[6] = target: rhesus TNFR1-Fc (rhesus; human); assay: discussion of the example's results

binding [1]: binds
binding [2]: binds
binding [3]: binds
binding [4]: binds
binding [5]: binds
binding [6]: binds
B1: ATROSAB (antibody, human IgG1, kappa, V domains shown)
VH: QVQLVQSGAEVKKPGSSVKVSCKASGYTFTDFYINWVRQAPGQGLEWIGEIYPYSGHAYYNEKFKARVTITADKSTSTAYMELSSLRSEDTAVYYCARWDFLDYWGQGTTVTVSS
VL: DIVMTQSPLSLPVTPGEPASISCRSSQSLLHSNGNTYLHWYLQKPGQSPQLLIYTVSNRFSGVPDRFSGSGSGTDFTLKISRVEAEDVGVYYCSQSTHVPYTFGGGTKVEIKR
